Measured values as given in PubChem BioAssay AID1487 (National Center for Advancing Translational Sciences (NCATS), 2009).
The whole screen tested about 200,000 compounds, of which about 25 (0.01%) were called active. This list was built around the results that the source calls inconclusive (neither active nor inactive); the mix of calls is not that of the screen. Calls follow the shape of the dose curve; as a rule, active = well fitted inhibition curve with a large enough effect in the signal ratio, with a control signal flat (not every such curve was filed as active); inconclusive = small, poorly fitted or top-dose-only effect, or effect the other way, or a change in a side signal; inactive = flat fitted curve, though single readings scatter; the % refers to the signal ratio. A potency beside an inconclusive call is a rough fit, not a confirmed value. A note “side channel” means that the fit belongs to a control or component signal, not to the main read-out.

Test: qHTS Assay for Modulators of Lamin A Splicing
Conditions: HeLa LMNA splicing GFP/RFP minigene ratio, 48 h; ratio change, negative = inhibition: at 46.1 µM (top of the series) unless noted
Procedure, shortened: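 Read-out is the ratio of GFP to DsRed2 object intensity, acquired by 488 nm laser-scanning cytometry on HeLa lamin A-EGFP minigene reporter cells. Compound incubation 48 hrs at 37 °C in Opti-MEM with 2% FBS; DMSO 0.5% final.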
% is scaled to controls: 0 for no effect and ±100 for the full control effect; potency is read from the fitted curve at half-maximal effect.

SMILES	ratio change, negative = inhibition	Potency
CC1=C(C(=O)OC(C)C)C(c2cncc(-c3ccc(F)cc3)c2)C(C#N)=C(N)O1 (stereo unspecified)	inconclusive: 7.84%	
O=C(Nc1ccccc1Cl)OCc1cncs1	inconclusive: 39.2% [at 46 µM]	
CN1CCCN(C(c2ccccc2)c2ccc(Cl)cc2)CC1 (stereo unspecified)	inconclusive: -14.4%	
C=CCn1c(SCc2c(C)noc2C)nc2sc3c(c2c1=O)CCC(C)C3 (stereo unspecified)	inconclusive: -22%	
CCOC(=O)c1cnc2c(cnn2CC)c1NN=C(C)C	inconclusive: -34%	
Cc1ccc(CCN=c2c([N+](=O)[O-])nn(-c3ccccc3)n2O)cc1	inconclusive: 8.76% [at 46 µM]	
CCC1(c2ccccc2)NC(=O)N(Cc2cccc([N+](=O)[O-])c2)C1=O (stereo unspecified)	inconclusive: -8.66% [at 46 µM]	
O=C(c1ccccc1)c1cccc(NC(=O)c2ccco2)c1	inconclusive: 3.2%	
Cc1ccc(C(=O)NCC(=O)OCC(=O)N2CCCc3ccccc32)cc1	inconclusive: 4.94%	
O=C(CCS(=O)(=O)c1ccccc1)N(Cc1cccnc1)c1nc2c(Cl)cccc2s1	inconclusive: 92.9% [at 46 µM]	
Cn1c(-c2ccc(Cl)cc2)cnc1NCc1cc2c(cc1[N+](=O)[O-])OCO2	inactive: -14%	
Cc1ccc(Cl)cc1NC(=O)c1sc2nc(-c3ccccc3)cn2c1C	inconclusive: 12% [at 46 µM]	
Cc1c(/C(O)=C2/C(=O)C(=O)N(CCN3CCOCC3)C2c2ccccn2)cnn1-c1ccccc1 (stereo unspecified)	inactive: 7.28% [at 46 µM]	
Cc1ccc(Cl)cc1NC(=O)CCCn1c(=O)c2cccn2c2ccccc21	inactive: -8.96% [at 46 µM]	
O=C(COc1ccccc1)Nc1ccc(-c2nnc(-c3ccco3)o2)cc1	inactive: 6.67%	
C#CCn1c(S(=O)(=O)Cc2ccc(C)cc2)nc(-c2ccccc2)c1-c1ccccc1		inconclusive: 3.55 µM [inhibitor, full curve]
COc1ccc(-c2nc3scc(CCNS(=O)(=O)c4cc(F)ccc4OC)n3n2)cc1OC	inconclusive: -9.9% [at 46 µM]	
Cc1noc(C)c1CSc1nc2[nH]ncc2c(=O)n1-c1ccccc1		inconclusive: 0.794 µM [inhibitor, full curve]
Cc1c(C(c2ccc(O)cc2)c2c(C)n(C)n(-c3ccccc3)c2=O)c(=O)n(-c2ccccc2)n1C	inactive: 11.1% [at 9.22 µM]	
CSCC(=O)Nc1nc(-c2ccc3c(c2)OCCO3)cs1	inconclusive: 13% [at 46 µM]	
CC(=O)c1c(C)[nH]c(C(=O)OCC(=O)N2CC(=O)Nc3ccccc32)c1C	inconclusive: -5.57%	

SMILES	ratio change, negative = inhibition	Potency
O=S(=O)(c1ccccc1)N1CCC(O)(CSc2ccc(F)cc2)CC1		inconclusive: 10 µM [inhibitor, partial curve, poor fit]
Cc1ccc(NC(=O)C2CCN(S(=O)(=O)c3ccc4c(c3)CCCC(=O)N4)CC2)c(Cl)c1	inactive: 1.93% [at 46 µM]	
CC(Sc1nnc(-c2ccccc2)c(-c2ccccc2)n1)C(=O)N1CCc2ccccc21 (stereo unspecified)	inactive: -22.5%	
C=CCn1c(COc2ccc(Cl)cc2)nnc1SCC(=O)N/N=C/c1ccccc1	inactive: 12.6%	
O=C(NN1C(=O)C2C(C1=O)C1C=CC2C12CC2)c1ccccc1 (stereo unspecified)	inconclusive: 8.41% [at 46 µM]	
O=C(COc1ccc(Cl)cc1Cl)NC(=S)N1CCCc2ccccc21	inconclusive: -4.75%	
COc1cc(C(c2c(C)[nH][nH]c2=O)c2c(C)[nH][nH]c2=O)cc([N+](=O)[O-])c1O	inconclusive: 9.32% [at 46 µM]	
Cc1cccc(NC(=O)Cc2coc3ccc4ccccc4c23)n1		inconclusive: 35.5 µM [falling, single point]
Cc1cc(/C=C\c2ccccc2)nc2ccccc12	inconclusive: -15.5% [at 46 µM]	
COc1ccc(-c2[nH]ncc2CN2CCN(C3CCCCC3)C(=O)C2)cc1F	inconclusive: -7.22% [at 46 µM]	
CCOC(=O)c1c(C)[nH]c(C(=O)COC(=O)c2ccccn2)c1C	inconclusive: 4.46% [at 0.0737 µM]	
COc1ccc(Br)cc1CN(C)CC(=O)Nc1cc(Cl)cc(Cl)c1		inconclusive: 15.8 µM [fluorescent, partial curve]
COc1cc(NC(=O)Cn2nc(C(F)(F)F)c(Br)c2C)cc([N+](=O)[O-])c1	inconclusive: -32.2%	
O=c1c(-c2cccs2)nc2cnc(N3CCNCC3)nc2n1CCc1ccccc1		inconclusive: 35.5 µM [cytotoxic, single point]
CCOC(=O)c1cccc(NS(=O)(=O)c2cc(-c3cnc(C)o3)ccc2OC)c1	inconclusive: -22.8% [at 46 µM]	
CC1CCC(C(C)C)C(OC(=O)Cn2c(-c3ccccc3)[n+](C)c3ccccc32)C1 (stereo unspecified)		inconclusive: 8.91 µM [falling, partial curve]
CCCCCNC(=O)c1cc2c(=O)n3ccccc3nc2n1C	inconclusive: -4.93% [at 46 µM]	
Cc1cc(/C=N/O)c(C)n1-c1ccc(Br)cc1	inconclusive: -12.2%	
CCN1C(=O)C(C(=O)c2ccccc2)SC1=S (stereo unspecified)	inactive: -18.6% [at 46 µM]	
Cc1nnc(N(Cc2ccccc2)C(=O)c2cnccn2)s1	inactive: 1.58%	
O=C(CSc1nc2cc(Cl)ccc2o1)c1cccs1	inactive: -0.0492%	

SMILES	ratio change, negative = inhibition	Potency
N#C/C(=C\c1ccc(O)c(O)c1)C(=O)NCCCc1ccccc1		inconclusive: 5.01 µM [inhibitor, partial curve, poor fit]
CN(Cc1ccon1)Cc1cn(C)nc1-c1ccc2c(c1)OCCO2	inconclusive: 23.4% [at 46 µM]	
CCCCCCCCCCCCCCCC(=O)O	inconclusive: -0.0123%	
CCCCc1ccc(-c2csc(/C(C#N)=C\c3ccc(C)o3)n2)cc1	inactive: 11.8%	
O=C(CSc1ncnc2sc3c(c12)CCCC3)N1CCC(c2noc3ccc(F)cc23)CC1	inconclusive: -15.8%	
CCOc1ccc(NC(=S)c2ccncc2)cc1		inconclusive: 10 µM [falling, partial curve, poor fit]
CN(C)c1cccc(NC(=O)Cc2ccc(F)cc2)c1	inconclusive: 11.9%	
CNc1ncnc2ccc(-c3ccccc3C)cc12	inactive: 2.09%	
CCn1c2ccccc2c2cc(NC(=O)CSc3nnc(-c4ccccc4)o3)ccc21		inconclusive: 12.6 µM [falling, partial curve]
COc1ccc2[nH]c3ccccc3c2c1	inactive: 12.7%	
COc1ccccc1NC(=O)N1CCCC(c2nc3c(nnn3Cc3ccc(C)cc3)c(=O)[nH]2)C1 (stereo unspecified)	inactive: 8.2%	
O=P(CCO)(c1ccccc1)c1ccccc1	inconclusive: 6.59% [at 46 µM]	
CCCCc1ccc(NC2=NCC(=O)N2CCc2ccccc2)cc1	inconclusive: -15.9% [at 46 µM]	
COc1cccc(CNS(=O)(=O)c2ccc3[nH]c4c(c3c2)CCCCC4)c1	inconclusive: -17.7% [at 46 µM]	
N#Cc1cccc(-c2nc3cnc(Oc4cccc(Cl)c4)nc3n(C3CC3)c2=O)c1	inconclusive: -14.4%	
Cn1ncc(Br)c1C(=O)N1CCc2ccccc21	inconclusive: 6.23%	
COC(=O)c1cccc([N+](=O)[O-])c1CN1CCCC(C(N)=O)C1 (stereo unspecified)	inconclusive: 1.42% [at 46 µM]	
O=C(Nc1nc2c(F)cccc2s1)c1ccc(S(=O)(=O)N2CCOCC2)cc1	inconclusive: 8.01% [at 46 µM]	
Nc1ccc(Br)c2cccnc12	inconclusive: 13.3% [at 46 µM]	
Cc1ccc(C(=O)NC(=S)NNC(=O)CCN2CCOCC2)cc1	inconclusive: -30.3% [at 46 µM]	
CCc1cccc(CC)c1NC(=O)CN(CC(=O)O)CC(=O)O	inconclusive: -7.87%	

SMILES	ratio change, negative = inhibition	Potency
CCCn1c(=O)c2ccccc2n2c(SCc3nc4ccccc4s3)nnc12	inconclusive: 7.61%	
CN(C)c1ccc(NC(=O)CSc2nnc(-c3cccs3)n2Cc2ccco2)cc1	inactive: 5.41%	
Cc1cccc(NC(=O)CN2C(=O)S/C(=C\c3ccccn3)C2=O)c1	inconclusive: 14% [at 46 µM]	
Cc1ccccc1C(=O)c1c[nH]c(C(=O)NCCCn2ccnc2)c1	inconclusive: -27.2%	
CC(C)(C)n1nnnc1C(c1cccc(C#N)c1)N1CCN2CCCC2C1 (stereo unspecified)	inactive: -3.63%	
CN(CCc1cnn(C)c1)C(=O)CCc1nnc(CCCc2ccccc2)o1	inconclusive: 9.1% [at 46 µM]	
CN(C)c1ccc(S(=O)(=O)NCC(=O)OCC(=O)Nc2cccc(Cl)c2)cc1[N+](=O)[O-]	inactive: 10.3%	
COc1ccc(CCNC(=S)Nc2cccc3ccccc23)cc1		inconclusive: 25.1 µM [fluorescent, single point]
CCOc1ccccc1Nc1ccnc2cc(Cl)ccc12	inactive: -13.6% [at 46 µM]	
NNC(=O)c1sccc1OCc1ccc(F)cc1	inactive: 10.9% [at 46 µM]	
CC(NC(=O)C(=O)NN=C1CCC(C(C)(C)C)CC1)c1ccccc1 (stereo unspecified)	inconclusive: -8.43%	
CN(C)c1cc[n+](CC(=O)c2ccc(-c3ccccc3)cc2)cc1	inconclusive: -28.6% [at 46 µM]	
Cc1ccc(Cn2c(SCC(C)C)nc3c2c(=O)[nH]c(=O)n3C)cc1	inactive: 2.11%	
Cc1ccccc1NS(=O)(=O)c1ccc(C(=O)N2CCN(c3ccccn3)CC2)cc1	inconclusive: -38.4% [at 46 µM]	
COc1ccccc1CCNC(=O)C(=O)NCC(c1ccco1)S(=O)(=O)c1cccs1 (stereo unspecified)	inactive: -7.57% [at 46 µM]	
COc1ccc(NCc2ccc(OC)c(OC)c2)cc1	inactive: 14.1%	
CN(C)S(=O)(=O)c1ccc(/C(O)=C2/C(=O)C(=O)N(Cc3cccnc3)C2c2ccncc2)cc1 (stereo unspecified)	inactive: 4.45%	
O=C(NCc1ccccc1)C(=O)NCC1OCCN1C(=O)c1ccc(Cl)cc1 (stereo unspecified)		inconclusive: 398 µM [side channel, falling, partial curve, poor fit]

In another format: five of the compounds above
SMILES,"ratio change, negative = inhibition",Potency
Cc1cccc(NC(=O)CN2C(=O)S/C(=C\c3ccccn3)C2=O)c1,inconclusive: 14% [at 46 µM],
Cc1ccccc1C(=O)c1c[nH]c(C(=O)NCCCn2ccnc2)c1,inconclusive: -27.2%,
CN(C)c1ccc(S(=O)(=O)NCC(=O)OCC(=O)Nc2cccc(Cl)c2)cc1[N+](=O)[O-],inactive: 10.3%,
NNC(=O)c1sccc1OCc1ccc(F)cc1,inactive: 10.9% [at 46 µM],
Cc1ccccc1NS(=O)(=O)c1ccc(C(=O)N2CCN(c3ccccn3)CC2)cc1,inconclusive: -38.4% [at 46 µM],
